Laboratory results taken from article PMC11026413.
Results are given in words; binding and its absence hold for the method and conditions named. In cells and extracts the contact can be indirect. Some results given as binding are weak or reduced against the parent protein; the word gives no strength.

Amino acid sequences for entries named in this document (tags omitted).
UniProt Q9VQE0: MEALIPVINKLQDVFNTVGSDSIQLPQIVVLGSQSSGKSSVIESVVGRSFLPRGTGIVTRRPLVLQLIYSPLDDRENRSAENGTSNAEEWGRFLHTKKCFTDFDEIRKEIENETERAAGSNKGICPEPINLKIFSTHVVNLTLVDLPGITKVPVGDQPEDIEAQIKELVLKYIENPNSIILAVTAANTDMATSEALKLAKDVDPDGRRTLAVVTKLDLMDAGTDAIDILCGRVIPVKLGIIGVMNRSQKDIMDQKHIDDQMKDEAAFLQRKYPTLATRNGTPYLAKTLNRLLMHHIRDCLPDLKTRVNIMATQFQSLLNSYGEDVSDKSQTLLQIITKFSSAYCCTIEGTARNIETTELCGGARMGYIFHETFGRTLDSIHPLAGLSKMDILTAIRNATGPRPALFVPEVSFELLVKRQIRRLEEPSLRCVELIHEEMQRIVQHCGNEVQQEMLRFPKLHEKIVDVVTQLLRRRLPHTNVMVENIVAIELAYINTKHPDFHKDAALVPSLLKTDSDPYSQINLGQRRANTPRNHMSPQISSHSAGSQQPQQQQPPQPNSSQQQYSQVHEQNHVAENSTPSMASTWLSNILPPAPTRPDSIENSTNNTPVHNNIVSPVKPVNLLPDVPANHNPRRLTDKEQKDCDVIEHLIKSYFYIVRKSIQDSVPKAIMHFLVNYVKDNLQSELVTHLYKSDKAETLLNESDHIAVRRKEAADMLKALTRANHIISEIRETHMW
UniProt Q9VT57: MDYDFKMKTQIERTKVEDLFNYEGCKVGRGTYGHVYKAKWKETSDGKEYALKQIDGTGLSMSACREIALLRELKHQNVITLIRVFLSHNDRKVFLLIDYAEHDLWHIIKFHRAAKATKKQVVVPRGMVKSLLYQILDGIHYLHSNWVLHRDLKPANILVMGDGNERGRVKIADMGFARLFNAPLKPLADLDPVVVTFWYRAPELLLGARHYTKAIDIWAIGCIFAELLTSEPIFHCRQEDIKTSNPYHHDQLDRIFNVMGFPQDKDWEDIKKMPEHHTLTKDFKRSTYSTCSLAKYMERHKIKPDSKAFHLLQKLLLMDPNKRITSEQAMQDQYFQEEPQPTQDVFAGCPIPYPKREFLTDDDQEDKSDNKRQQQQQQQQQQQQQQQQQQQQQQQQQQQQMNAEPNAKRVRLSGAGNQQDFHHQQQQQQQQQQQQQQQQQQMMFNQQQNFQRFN

Tests used:
[1] = target: HA-tagged Drp1 (UAS-Drp1^HA expressed in fly muscle with Mhc-Gal4) (Drosophila melanogaster) (UniProt Q9VQE0); test: co-IP; protein extracts of adult thoraxes (MhcGal4 > UAS-Drp1^HA + Cdk8::GFP, 25 °C), pre-cleared with IgG, incubated with anti-HA or IgG beads overnight at 4 °C; Cdk8::GFP detected with rabbit anti-GFP
[2] = target: Myc-tagged Cdk8 (pAWM-Cdk8) (Drosophila melanogaster) (UniProt Q9VT57); test: co-IP; cytoplasmic fractions of S2R+ cells with pAWM-Cdk8 and pAWH-Drp1, Myc-agarose beads overnight at 4 °C, then in vitro kinase assay with or without 0.2 mM ATP; Drp1 detected with anti-Drp1
[3] = target: Myc-tagged Cdk8 (pAWM-Cdk8) (Drosophila melanogaster) (UniProt Q9VT57); test: co-IP; S2R+ cells co-transfected with Myc-tagged Cdk8 and HA-tagged Drp1; extracts incubated with IgG, HA or Myc-agarose beads overnight at 4 °C; Western blot
[4] = target: HA-tagged Drp1 (pAWH-Drp1) (Drosophila melanogaster) (UniProt Q9VQE0); test: as above

“Cdk8-superfolder-GFP fusion protein (endogenous GFP-tagged Cdk8) (from UniProt Q9VT57 1-454)” was tested. Which binding [1] did it give?
The binding was “binds”.

Which binding [2] does the source give for “HA-tagged Drp1 (pAWH-Drp1) (from UniProt Q9VQE0 1-735)” here?
The binding was “binds”.

What about the binding [3] of the same substance?
Its binding is “binds”.

For “Myc-tagged Cdk8 (pAWM-Cdk8) (from UniProt Q9VT57 1-454)”, which binding [4] is on record?
The binding was “binds”.
